# PubChem BioAssay AID743121 | NCATS, 2013
# Aim: 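Knock-downs that sensitise breast cancer cells to camptothecin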 (primary screen)
# Cell system: MDA-MB-231 cells, a human breast cancer line
# Reagent: single siRNA against human genes, 20 nM siRNA (0.8 pmol per well)
# Time to read-out: 120 h (drug added 48 h after transfection, read 72 h later)
# Treatment: camptothecin 20 nM (about EC30) for 72 h; vehicle 0.1% DMSO in parallel plates
# Measurement: 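CellTiter-Glo ATP signal, scaled to control siRNA as percent viability; sensitisation given as log2 of untreated divided by camptothecin-treated viability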
# Scale: log2 vehicle/camptothecin viability: higher = stronger sensitisation to camptothecin; viability with camptothecin and viability without drug: higher = more viable cells
# Active means: 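Active genes have an RSA gene-level p-value below 0.001, computed from the ratios of their separate siRNAs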
# This is a random part of about 26,000 deposited reagents. 167 of all reagents (0.63%) were called active. 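Calls are per gene from RSA p-values that are not deposited; an individual active-marked siRNA can sensitise only weakly.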 Unmarked entries are inactive. Reagents against one gene are numbered here.
The opening 4 records as a preview:
log2 vehicle/camptothecin viability,viability with camptothecin (% of control),viability without drug (% of control),gene knocked down,reagent
0.177,99.9,113,PDIA5 (protein disulfide isomerase family A member 5),1
0.122,76.7,83.4,PDIA5 (protein disulfide isomerase family A member 5),2
0.486,77.7,109,PDIA5 (protein disulfide isomerase family A member 5),3
-0.167,88.7,79,PDIA5 (protein disulfide isomerase family A member 5),4

Main list, from the start:
log2 vehicle/camptothecin viability,viability with camptothecin (% of control),viability without drug (% of control),gene knocked down,reagent
0.177,99.9,113,PDIA5 (protein disulfide isomerase family A member 5),1
0.122,76.7,83.4,PDIA5 (protein disulfide isomerase family A member 5),2
0.486,77.7,109,PDIA5 (protein disulfide isomerase family A member 5),3
-0.167,88.7,79,PDIA5 (protein disulfide isomerase family A member 5),4
-0.032,74.9,73.3,CSAD (cysteine sulfinic acid decarboxylase),1
-0.0582,85.7,82.3,CSAD (cysteine sulfinic acid decarboxylase),2
0.00621,99.5,99.9,CSAD (cysteine sulfinic acid decarboxylase),3
0.0423,79.8,82.2,CSAD (cysteine sulfinic acid decarboxylase),4
0.0386,95.8,98.4,OR1D4 (olfactory receptor family 1 subfamily D member 4),1
-0.109,96.2,89.2,OR1D4 (olfactory receptor family 1 subfamily D member 4),2
-0.0527,80.3,77.4,SCARA3 (scavenger receptor class A member 3),1
-0.0632,118,113,SCARA3 (scavenger receptor class A member 3),2
0.293,17.9,22,SCARA3 (scavenger receptor class A member 3),3
-0.515,42.3,29.6,SCARA3 (scavenger receptor class A member 3),4
-0.221,80.3,68.9,FBXO22 (F-box protein 22),1
-0.376,74.6,57.5,FBXO22 (F-box protein 22),2
-0.271,93.3,77.3,FBXO22 (F-box protein 22),3
-0.37,69.7,54,FBXO22 (F-box protein 22),4
-0.032,88.5,86.5,MYLK2 (myosin light chain kinase 2),1
-0.62,74.1,48.2,MYLK2 (myosin light chain kinase 2),2
0.0575,50.5,52.5,MYLK2 (myosin light chain kinase 2),3
-0.375,68.1,52.5,MYLK2 (myosin light chain kinase 2),4
-0.308,94,75.9,PELI2 (pellino E3 ubiquitin protein ligase family member 2),1
0.155,78.9,87.9,PELI2 (pellino E3 ubiquitin protein ligase family member 2),2
-0.249,47.2,39.7,PELI2 (pellino E3 ubiquitin protein ligase family member 2),3
-0.377,83.2,64.1,PELI2 (pellino E3 ubiquitin protein ligase family member 2),4
0.405,24.5,32.4,CCL21 (C-C motif chemokine ligand 21),1
-0.138,96.6,87.8,CCL21 (C-C motif chemokine ligand 21),2
-0.248,37.8,31.8,CCL21 (C-C motif chemokine ligand 21),3
-0.418,74.2,55.5,CCL21 (C-C motif chemokine ligand 21),4
0.235,56.6,66.6,IRAK1 (interleukin 1 receptor associated kinase 1),1
-0.00732,88.7,88.2,IRAK1 (interleukin 1 receptor associated kinase 1),2
0.119,40.1,43.5,IRAK1 (interleukin 1 receptor associated kinase 1),3
-0.0861,106,99.7,IRAK1 (interleukin 1 receptor associated kinase 1),4
0.00855,45.1,45.4,RAMP2 (receptor activity modifying protein 2),1
0.306,50.2,62.1,RAMP2 (receptor activity modifying protein 2),2
0.0376,60.3,61.9,RAMP2 (receptor activity modifying protein 2),3
-0.111,93.2,86.2,ADAMTS5 (ADAM metallopeptidase with thrombospondin type 1 motif 5),1
-0.201,105,91.7,ADAMTS5 (ADAM metallopeptidase with thrombospondin type 1 motif 5),2
-0.145,69.9,63.2,ADAMTS5 (ADAM metallopeptidase with thrombospondin type 1 motif 5),3
-0.266,101,83.8,ADAMTS5 (ADAM metallopeptidase with thrombospondin type 1 motif 5),4
-0.00468,16.8,16.7,CITED2 (Cbp/p300 interacting transactivator with ED-rich tail 2),1
-0.534,55.3,38.2,CITED2 (Cbp/p300 interacting transactivator with ED-rich tail 2),2
0.24,68.8,81.3,CITED2 (Cbp/p300 interacting transactivator with ED-rich tail 2),3
-0.0653,79.6,76.1,CITED2 (Cbp/p300 interacting transactivator with ED-rich tail 2),4
-0.216,90.9,78.3,HPRT1 (hypoxanthine phosphoribosyltransferase 1),1
-0.3,70.4,57.2,HPRT1 (hypoxanthine phosphoribosyltransferase 1),2
-0.191,45.8,40.1,HPRT1 (hypoxanthine phosphoribosyltransferase 1),3
